Experiment [1] addresses NpeA(90-170)-6×His, recombinant soluble fragment of NpeA (amino acids 90–170, contains the SLiM) fus (Brucella abortus) (UniProt Q2YJ33). Briefly: pull-down; only the target purified.
Experiment [2] has as its target MBP-N-WASP, full-length N-WASP fused to the maltose-binding protein (UniProt O00401). Put plainly: pull-down; both purified.

Chains of the proteins cited; added tags and fusions are not shown.
UniProt O00401: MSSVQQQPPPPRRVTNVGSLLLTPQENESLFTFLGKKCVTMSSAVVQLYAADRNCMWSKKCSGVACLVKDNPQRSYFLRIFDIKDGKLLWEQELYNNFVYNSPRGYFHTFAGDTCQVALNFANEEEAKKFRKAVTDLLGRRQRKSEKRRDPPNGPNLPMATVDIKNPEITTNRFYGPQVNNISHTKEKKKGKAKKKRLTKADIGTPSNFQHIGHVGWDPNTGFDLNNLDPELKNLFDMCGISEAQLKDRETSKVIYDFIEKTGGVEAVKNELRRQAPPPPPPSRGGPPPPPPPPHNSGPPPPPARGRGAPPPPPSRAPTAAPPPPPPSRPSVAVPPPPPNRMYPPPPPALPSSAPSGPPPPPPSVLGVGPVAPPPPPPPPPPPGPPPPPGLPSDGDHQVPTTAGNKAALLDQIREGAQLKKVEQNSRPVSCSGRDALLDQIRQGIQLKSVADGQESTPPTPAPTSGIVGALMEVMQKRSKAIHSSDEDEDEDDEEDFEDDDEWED

No constants are given. Whether binding was seen depends on the method and setting. For some assays here: Binding seen in cells or lysates may run through a third protein. Some entries that bind do so weakly or less than the wild type.

Consider “endogenous N-WASP from HeLa cell lysate (from UniProt O00401 1-505)”, for which, in experiment [1], the binding entry was “binds”.
In the case of “NpeA(90-170)-6×His, recombinant soluble fragment of NpeA (amino acids 90–170, contains the SLiM) fus (from UniProt Q2YJ33 90-170) (domain or fragment)”, the binding result in experiment [2] is on record as “binds”.
